Results: article PMC8750366, “Role of the Redox State of Human Peroxiredoxin-5 on Its TLR4-Activating DAMP Function” (Antioxidants, 2021)
These are yes or no findings as the source states them, for the method shown. Some entries that bind do so weakly or less than the wild type. Where a sequence is shown, tags or fusion partners need not be part of it.

Chains of the proteins cited; added tags and fusions are not shown. Residues count along the entry.
UniProt O00206, residues 24-839: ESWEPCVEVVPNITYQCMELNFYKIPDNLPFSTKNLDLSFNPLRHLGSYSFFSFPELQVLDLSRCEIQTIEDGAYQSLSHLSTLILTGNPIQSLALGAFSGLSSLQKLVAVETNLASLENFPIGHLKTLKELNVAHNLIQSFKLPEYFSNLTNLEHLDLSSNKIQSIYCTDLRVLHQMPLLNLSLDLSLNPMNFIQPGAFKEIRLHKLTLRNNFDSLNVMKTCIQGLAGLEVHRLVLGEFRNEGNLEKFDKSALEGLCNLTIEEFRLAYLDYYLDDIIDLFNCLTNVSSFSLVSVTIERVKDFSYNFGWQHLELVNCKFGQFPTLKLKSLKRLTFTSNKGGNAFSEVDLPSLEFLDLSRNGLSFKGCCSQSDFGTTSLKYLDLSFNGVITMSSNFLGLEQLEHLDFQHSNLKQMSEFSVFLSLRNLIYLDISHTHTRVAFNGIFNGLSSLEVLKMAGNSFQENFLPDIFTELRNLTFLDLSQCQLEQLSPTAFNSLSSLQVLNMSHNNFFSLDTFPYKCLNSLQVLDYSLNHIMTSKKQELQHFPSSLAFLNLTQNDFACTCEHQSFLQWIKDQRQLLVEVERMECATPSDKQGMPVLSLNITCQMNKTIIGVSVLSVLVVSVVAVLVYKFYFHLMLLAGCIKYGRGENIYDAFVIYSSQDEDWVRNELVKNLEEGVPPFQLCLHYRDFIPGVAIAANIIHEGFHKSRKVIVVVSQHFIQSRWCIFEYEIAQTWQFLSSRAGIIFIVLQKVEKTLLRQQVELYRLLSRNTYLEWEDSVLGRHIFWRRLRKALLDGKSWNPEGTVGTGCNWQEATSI

What was measured:
[1] = molecular target: recombinant wild-type N-terminal 6xHis-tagged human peroxiredoxin-5, disulfide (oxidized) form (human) (UniProt P30044); experiment: ESI-Q-TOF MS of intact proteins by direct infusion; samples in TEAB, dimedone and CAM blocked, acidified with 1% TFA, C4 ZipTip, eluted in 50% acetonitrile, 0.1% formic acid; MaxEnt1 deconvolution; both purified
[2] = molecular target: recombinant wild-type N-terminal 6xHis-tagged human peroxiredoxin-5, disulfide (oxidized) form (human) (UniProt P30044); experiment: non-reducing SDS-PAGE and Western blot; 100 ng of each redox form, SDS-PAGE under non-reducing conditions, anti-PRDX5 serum; both purified
[3] = molecular target: TLR4-YFP stably expressed on HEK293 MD2-CD14 cells (UniProt O00206); experiment: flow cytometry on cells; living HEK293 MD2-CD14 TLR4 cells exposed to 1 µM of the PRDX5 redox forms or increasing dsPRDX5 in DMEM, 40 min on ice; detected with anti-PRDX5 serum and Alexa Fluor 647 Plus secondary antibody; MFI of untreated cells subtracted; only the binder purified

Measured: binding

B1: recombinant wild-type N-terminal 6xHis-tagged human peroxiredoxin-5, disulfide (oxidized) form (enzyme)
chain: APIKVGDAIPAVEVFEGEPGNKVNLAELFKGKKGVLFGVPGAFTPGCSKTHLPGFVEQAEALKAKGVQVVACLSVNDAFVTGEWGRAHKAEGKVRLLADPTGAFGKETDLLLDDSLVSIFGNRRLKRFSMVVQDGIVKALNVEPDGTGLTCSLAPNIISQL
modifications: disulfide bridge between C47 and C151
notes: human peroxiredoxin-5 (PRDX5), wild type; calculated mass with reduced thiols 18,297.81 Da; Mainly a dimer by SEC-MALS, with ~30% monomers; also called dsPRDX5; PRDX5; source: E. coli M15 (pRep4), pQE-30, purified (Ni-NTA), dialyzed against PBS; not shown: His6, N-terminal, kept
binds: all assays above
